For the test, the target named is purified integrin α5β1. The experiment in a line: solid-phase binding test: purified integrin α5β1 on plates covered with peptides, anti-integrin antibody, colorimetric.

No constants are given. Whether binding was seen depends on the method and setting. Binding calls can cover weak binding; strength is not graded here.

B1: peptide 12 (NYLTHRQ, VEGFR-1 residues 219-225) (peptide)
peptide: NYLTHRQ
notes: Covalently linked to plates or coated on magnetic beads, or added in solution to HUVEC; also called P12; original peptide 12
For B1, the binding entry is “binds”.

These data come from US8093218B2, “Peptide derived from vascular endothelial growth factor receptor-1 binding integrin α5β1 having proangiogenic activity” (Provincia Italiana della Congregazione dei Figli …, priority 2006, dated 2012).
